# Assay results as given in PubChem BioAssay AID588497 (NMMLSC, 2011).
# About 780 (0.22%) of roughly 360,000 compounds were called active. Inconclusive means that the source gave no clear call. Such entries were picked first, then a sample of the others. Rule as the data show it: active = inhibition above about 35% (passing the limit was not always enough); inconclusive = no clear call, values can overlap the other calls.
# System: Botulinum neurotoxin type F light chain protease (Clostridium botulinum)
# Experiment: BoNT/F light chain protease inhibitors, primary screen, biochemical, flow cytometry, MLPCN library (AID 588497); also: plate controls were buffer without enzyme for full effect and enzyme alone for no effect
# Conditions: Multiplex microsphere protease cleavage assay, at 10 µM, stronger effect = higher value
row,SMILES,inhibition
1,Cc1nc(S(=O)(=O)Nc2ccc3c(c2)OCCO3)cn1C,inconclusive: -28%
2,C#CCOc1cc(C2C3=C(COC3=O)Nc3cc4c(cc32)OCO4)ccc1OC (configuration not stated),inactive: -1.9%
3,CCCCCCC(=O)c1c(O)n(-c2ccc(OC)cc2)c(=O)[nH]c1=O (tested in a mixture with another compound),inconclusive: -19.3%
4,O=C(CNS(=O)(=O)c1ccc(F)cc1)N1CCCC1,inconclusive: 22.9%
5,Cc1cccc(C)c1NC(=O)Cc1cccs1,inconclusive: 1.8%
6,CCc1ccc(NC2=NC(C(=O)NC3CCCCC3)CC(=O)N2)cc1 (configuration not stated),inactive: 6%
7,O=C(N/C(=C/c1cccnc1)C(=O)N1CCOCC1)c1ccccc1Cl,inconclusive: 66.8%
8,CCN1CCN(C(=S)c2ccc(OCC(=O)Nc3ccc(OC)cc3)cc2)CC1,inactive: -2.3%
9,Cc1cccc(Nc2nc(-c3ccccc3)cs2)n1,inconclusive: -13.3%
10,COc1ccc2c(=O)cc(-c3ccccc3F)oc2c1,active: 46.1%
11,COc1ccc(OC)c(NC(=O)C2CC2c2ccccc2)c1 (configuration not stated),inconclusive: -43.4%
12,Cc1ccc(NC(=O)CCC(=O)Nc2ccc(C)cc2)cc1,inconclusive: 26.6%
13,C/C(CC(=O)Nc1ccc(N(C)C)cc1)=N\NC(=O)c1ccccc1F,inconclusive: -10.1%
14,COc1cc2[nH]c(=O)n(Cc3ccc(C(=O)NC4CCCC4)cc3)c(=O)c2cc1OC,inactive: 11.3%
15,CCOCCCNC(=S)Nc1ccc2nc(N3CCOCC3)cc(C)c2c1,inactive: 0.1%
16,O=C(O)CC(CC(=O)Nc1ccc(N2CCOCC2)cc1)c1ccccc1 (configuration not stated),inconclusive: 48.1%
17,O=C(Cc1ccc(NS(=O)(=O)c2ccc(F)cc2)cc1)NCc1ccccc1,inconclusive: -11%
18,CN(c1ccccc1C(=O)Nc1ccccc1-c1ccccc1)S(C)(=O)=O,inconclusive: 32.7%
19,COc1ccc(S(=O)(=O)N(C)CC(=O)N2CCCC2)cc1,inconclusive: 13.1%

row,SMILES,inhibition
1,Cc1ccc(OCCCCc2c(C)n[nH]c2C)cc1,inconclusive: -18.2%
2,COC(=O)c1cccc(NC(=O)Nc2ccc(Cl)cc2)c1,inconclusive: -0.6%
3,COc1ccc(C(=O)N(C)C(C)c2ccon2)cc1OC1CCN(C(C)C)CC1 (configuration not stated),inactive: -1.6%
4,Cc1ccc(OCC(=O)N2CCc3ccccc3C2)c(C)c1,inconclusive: 13.8%
5,COc1ccc(-c2cc(-c3ccc(O)cc3)nc(N)c2C#N)cc1,inconclusive: -6.6%
6,Cc1ccc(C(=O)NC2(O)C(=O)c3ccccc3C2=O)cc1C,inconclusive: 15.7%
7,O=C(CCC(F)(F)F)N1CCCC(N2CCN(c3cccc(Cl)c3)CC2)C1 (configuration not stated),inconclusive: 7.8%
8,Cc1ccc(CNC(=O)C2CCCN(Cc3cnn(-c4ccccc4)c3-n3cccc3)C2)cc1 (configuration not stated),inactive: -2.8%
9,COCCCNC(=S)N1CCN(c2nc(-c3ccc(F)cc3)cs2)CC1,inconclusive: -36.5%
10,COCCNS(=O)(=O)c1ccc(-c2ccc(C)cc2)cc1,inactive: -17.6%
11,COc1ccccc1NC(=O)c1ccc(NC(=O)CSc2nnnn2C)cc1,inconclusive: -3.9%
12,CCOC(=O)C1C(c2ccc(O)cc2)NC(=O)NC1(O)C(F)(F)F (configuration not stated),inconclusive: 15.1%
13,CC(C)c1ccc(NC(=O)CSc2n[nH]c(=O)n2-c2cccnc2)cc1,inactive: -1.6%
14,Cc1ccc(C(=O)COC(=O)CNC(=O)c2ccc(Br)o2)cc1[N+](=O)[O-],inconclusive: -2.4%
15,Cc1ccc(/C=N/NC(=O)c2ccncc2)cc1,inconclusive: -4.3%
16,CC(=O)c1ccc(NC(=O)N2CCc3ccccc3C2)cc1,inactive: -6.4%
17,CC(=O)OCCN(CCCn1c(-c2ccncc2)nc2ccccc21)c1nc(CN2CCCCC2)cs1,inactive: -9.1%
18,CN(CCC#N)C(=O)COC(=O)c1ccc(CNS(=O)(=O)c2ccc(F)c(Cl)c2)cc1,inactive: -2.5%
19,C[C@H](NC(=O)Cn1cncn1)c1ccccc1,inactive: 0.3%

row,SMILES,inhibition
1,CC1(C(=O)NCC2CC2)Cc2c(-c3cccc(C(F)(F)F)c3)ccnc2O1 (configuration not stated),inactive: -2.6%
2,O=C(Nc1cc(S(=O)(=O)N2CCOCC2)ccc1N1CCCC1)c1ccc2c(c1)S(=O)(=O)c1ccccc1C2=O,inactive: -4.4%
3,Cc1cc[n+](-c2[nH]c(=O)sc2/C=N/N=C(\[O-])CCn2c3ccccc3c3ccccc32)cc1,inconclusive: -15.5%
4,O=C(NNC(=O)c1ccccc1O)c1ccc(-c2ccc([N+](=O)[O-])cc2)o1,inconclusive: -14.7%
5,Cc1nc(N2CCOCC2)nc(N2CCC(C)CC2)c1[N+](=O)[O-],inconclusive: 61.5%
6,C#CCOc1ccc2ccccc2c1/C=C(/C#N)c1ccc(C(=O)O)cc1,inconclusive: 4.7%
7,Cc1ccc(NC(=O)c2ccc3c(c2)CCN3S(C)(=O)=O)c(C)c1,inconclusive: -1.9%
8,CCN1CCN=C1Nc1ccccc1,inactive: -4.1%
9,CC(c1ccccc1)C1CC(=O)N(c2cc(Cl)ccn2)C1=O (configuration not stated),inconclusive: 48.6%
10,COc1ccc(-c2nn(CCC#N)cc2C(=O)Nc2ccccc2Cl)cc1,inconclusive: -28.7%
11,C/C(=N\NC(=O)c1cccc([N+](=O)[O-])c1)c1ccco1,inconclusive: -3.2%
12,Cc1ccc(-c2csc3ncn(CC(=O)N4CCOCC4)c(=O)c23)cc1C,inconclusive: -12.9%
13,Cn1cc(CNC(=O)/C=C/c2ccc(Cl)cc2)cn1,inactive: -19.3%
14,Brc1ccccc1OCCCOc1cccc2cccnc12,inconclusive: -25.1%
15,CCCC(NC(=O)COc1cc2c(c3oc(=O)cc(C)c13)CCC(C)(C)O2)C(=O)O (configuration not stated),inconclusive: -22.3%
16,CC(C)c1nnc(NC(=O)CCC(=O)Nc2ccc3cn[nH]c3c2)s1,inconclusive: -2.9%
17,O=C1CCCCCN1CP(=O)(O)CN1CCCCCC1=O,inconclusive: -89.4%
18,COc1cc(NC(=O)C2CC(=O)NC3=C2C(=O)CCC3)cc(OC)c1 (configuration not stated),inactive: -2.6%
19,c1ccc(Cn2nnc3c(NCc4ccc5c(c4)OCO5)nc(C4CC4)nc32)cc1,inconclusive: 13.2%

# A draw from above in order of heavy-atom count, low to high.
row,SMILES,inhibition
11,C/C(=N\NC(=O)c1cccc([N+](=O)[O-])c1)c1ccco1,inconclusive: -3.2%
9,CC(c1ccccc1)C1CC(=O)N(c2cc(Cl)ccn2)C1=O (configuration not stated),inconclusive: 48.6%
7,Cc1ccc(NC(=O)c2ccc3c(c2)CCN3S(C)(=O)=O)c(C)c1,inconclusive: -1.9%
16,CC(C)c1nnc(NC(=O)CCC(=O)Nc2ccc3cn[nH]c3c2)s1,inconclusive: -2.9%
